Numbering of substitutions follows the chain as printed. The exact form of at least one protein or probe is not confirmed. For some of these results: A weaker result is weaker than the reference pair of the same experiment. Protein sequences can lack the tags named with them.
Key:
Test in all cases: enzyme reaction in vitro
[1] = tested on: T1, BsmI R275D (Bacillus stearothermophilus NUB36); conditions: ds-DNA cleavage; protein in an extract; only the site is given
T1 sequence: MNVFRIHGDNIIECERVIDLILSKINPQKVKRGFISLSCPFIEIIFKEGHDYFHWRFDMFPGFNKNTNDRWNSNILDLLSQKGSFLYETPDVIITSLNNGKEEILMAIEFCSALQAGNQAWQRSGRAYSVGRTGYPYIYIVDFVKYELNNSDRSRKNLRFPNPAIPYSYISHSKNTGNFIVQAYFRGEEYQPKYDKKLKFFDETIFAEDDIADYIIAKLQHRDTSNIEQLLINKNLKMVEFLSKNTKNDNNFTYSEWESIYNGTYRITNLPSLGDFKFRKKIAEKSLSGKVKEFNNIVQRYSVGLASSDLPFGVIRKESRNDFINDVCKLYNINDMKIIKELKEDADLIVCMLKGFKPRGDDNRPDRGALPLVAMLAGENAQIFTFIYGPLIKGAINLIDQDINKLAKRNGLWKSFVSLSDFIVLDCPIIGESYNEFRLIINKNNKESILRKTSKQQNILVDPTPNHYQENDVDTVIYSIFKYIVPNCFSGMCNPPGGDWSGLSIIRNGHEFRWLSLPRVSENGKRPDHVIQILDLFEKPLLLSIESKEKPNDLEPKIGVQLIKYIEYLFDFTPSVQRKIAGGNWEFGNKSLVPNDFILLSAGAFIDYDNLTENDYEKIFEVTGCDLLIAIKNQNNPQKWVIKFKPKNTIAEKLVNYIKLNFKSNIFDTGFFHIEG

[2] = tested on: T2, BsmI R364D (Bacillus stearothermophilus NUB36); conditions: low nicking activity; protein in an extract; only the site is given
T2 sequence: T1 sequence with D275R, R364D

[3] = tested on: T3, BsmI restriction endonuclease (wild-type) (Bacillus stearothermophilus NUB36); conditions: linearizes pBR322 (ds-DNA cleavage); purified recombinant protein; only the site is given
T3 sequence: T1 sequence with D275R

[4] = tested on: T4, Nb.BsmI (E546V) (Bacillus stearothermophilus NUB36); conditions: nicking higher than triple mutant; ds-DNA cleavage about 10%; bottom strand ^GCATTC; purified recombinant protein; protein details: also assayed as crude cell extract; only the site is given
T4 sequence: T1 sequence with D275R, E546V

For “GCATTC [pBR322 supercoiled plasmid (one BsmI site)]”, the “activity on this sequence” value [1] was “active”, the “activity on this sequence” value [2] was “less active” and the “activity on this sequence” value [3] was “active”. The “activity on this sequence” value [4] was “active”.

— patent US20080213860
